In the supplement of paper PMC10849652:
The other results are listed elsewhere or left out.

By UniProt entry, the sequences of proteins in these tests, tags left out. Where a name states a change or a piece, a line headed by the entry shows the natural chain unless it says otherwise.
UniProt O14818: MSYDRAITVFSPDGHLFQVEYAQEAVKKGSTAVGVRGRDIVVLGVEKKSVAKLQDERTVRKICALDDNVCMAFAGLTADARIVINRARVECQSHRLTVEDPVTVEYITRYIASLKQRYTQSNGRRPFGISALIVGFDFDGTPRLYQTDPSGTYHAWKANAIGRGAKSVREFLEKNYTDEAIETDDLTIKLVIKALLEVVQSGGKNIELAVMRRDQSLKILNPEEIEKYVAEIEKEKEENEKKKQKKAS
UniProt P55036: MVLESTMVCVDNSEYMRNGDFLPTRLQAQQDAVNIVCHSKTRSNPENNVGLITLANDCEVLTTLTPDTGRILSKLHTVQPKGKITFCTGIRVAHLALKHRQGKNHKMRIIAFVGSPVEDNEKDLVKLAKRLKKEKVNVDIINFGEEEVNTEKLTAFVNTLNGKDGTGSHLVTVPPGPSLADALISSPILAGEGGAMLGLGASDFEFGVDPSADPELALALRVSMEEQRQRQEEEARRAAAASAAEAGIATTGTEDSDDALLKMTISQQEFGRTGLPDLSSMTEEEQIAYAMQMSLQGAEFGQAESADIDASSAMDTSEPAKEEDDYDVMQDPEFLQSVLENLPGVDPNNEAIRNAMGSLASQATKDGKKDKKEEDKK
UniProt P53801: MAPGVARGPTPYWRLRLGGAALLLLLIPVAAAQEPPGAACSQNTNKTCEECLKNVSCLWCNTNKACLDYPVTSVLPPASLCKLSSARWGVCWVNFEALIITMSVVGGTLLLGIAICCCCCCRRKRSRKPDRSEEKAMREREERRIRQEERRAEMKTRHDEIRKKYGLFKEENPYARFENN
UniProt Q9Y6M0: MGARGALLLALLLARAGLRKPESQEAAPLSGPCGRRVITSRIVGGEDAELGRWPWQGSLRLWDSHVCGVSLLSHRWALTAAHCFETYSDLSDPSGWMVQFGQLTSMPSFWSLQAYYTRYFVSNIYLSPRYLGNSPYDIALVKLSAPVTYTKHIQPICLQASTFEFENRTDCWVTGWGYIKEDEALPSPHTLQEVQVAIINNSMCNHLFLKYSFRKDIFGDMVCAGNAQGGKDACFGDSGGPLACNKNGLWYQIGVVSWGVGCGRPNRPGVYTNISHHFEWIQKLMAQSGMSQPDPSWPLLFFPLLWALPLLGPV
UniProt Q7Z6K3: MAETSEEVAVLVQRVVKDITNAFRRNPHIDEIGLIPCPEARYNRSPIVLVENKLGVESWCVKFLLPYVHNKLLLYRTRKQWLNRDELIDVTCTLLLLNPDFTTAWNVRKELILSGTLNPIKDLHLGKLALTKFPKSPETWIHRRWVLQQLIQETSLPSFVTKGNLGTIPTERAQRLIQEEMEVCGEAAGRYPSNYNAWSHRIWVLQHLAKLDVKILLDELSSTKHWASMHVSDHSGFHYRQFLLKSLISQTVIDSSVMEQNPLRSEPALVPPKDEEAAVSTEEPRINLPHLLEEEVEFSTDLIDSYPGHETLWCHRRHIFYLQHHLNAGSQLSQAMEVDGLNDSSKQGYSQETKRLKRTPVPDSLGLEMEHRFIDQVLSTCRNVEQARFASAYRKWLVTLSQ
UniProt P62195, whole entry, looked up: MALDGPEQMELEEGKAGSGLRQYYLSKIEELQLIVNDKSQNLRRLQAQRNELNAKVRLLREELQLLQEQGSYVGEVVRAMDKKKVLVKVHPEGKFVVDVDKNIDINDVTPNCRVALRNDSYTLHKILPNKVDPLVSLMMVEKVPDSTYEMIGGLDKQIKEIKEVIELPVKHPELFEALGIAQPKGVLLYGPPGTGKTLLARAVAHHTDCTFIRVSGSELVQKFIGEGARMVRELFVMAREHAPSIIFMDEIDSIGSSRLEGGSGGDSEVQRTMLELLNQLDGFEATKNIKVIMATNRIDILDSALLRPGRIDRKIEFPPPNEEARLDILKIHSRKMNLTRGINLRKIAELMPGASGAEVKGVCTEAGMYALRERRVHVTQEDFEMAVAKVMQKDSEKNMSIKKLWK
UniProt P43686, whole entry, looked up: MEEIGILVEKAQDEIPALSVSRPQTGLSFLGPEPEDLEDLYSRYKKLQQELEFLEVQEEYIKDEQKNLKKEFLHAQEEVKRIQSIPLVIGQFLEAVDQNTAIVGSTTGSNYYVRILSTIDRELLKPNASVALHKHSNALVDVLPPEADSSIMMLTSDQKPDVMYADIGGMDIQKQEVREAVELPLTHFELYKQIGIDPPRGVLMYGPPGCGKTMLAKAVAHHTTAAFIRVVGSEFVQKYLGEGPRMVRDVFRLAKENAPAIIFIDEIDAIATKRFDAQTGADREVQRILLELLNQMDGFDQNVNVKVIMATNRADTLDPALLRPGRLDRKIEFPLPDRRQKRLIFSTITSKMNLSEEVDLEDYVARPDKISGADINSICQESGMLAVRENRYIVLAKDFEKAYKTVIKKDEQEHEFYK
UniProt Q13332: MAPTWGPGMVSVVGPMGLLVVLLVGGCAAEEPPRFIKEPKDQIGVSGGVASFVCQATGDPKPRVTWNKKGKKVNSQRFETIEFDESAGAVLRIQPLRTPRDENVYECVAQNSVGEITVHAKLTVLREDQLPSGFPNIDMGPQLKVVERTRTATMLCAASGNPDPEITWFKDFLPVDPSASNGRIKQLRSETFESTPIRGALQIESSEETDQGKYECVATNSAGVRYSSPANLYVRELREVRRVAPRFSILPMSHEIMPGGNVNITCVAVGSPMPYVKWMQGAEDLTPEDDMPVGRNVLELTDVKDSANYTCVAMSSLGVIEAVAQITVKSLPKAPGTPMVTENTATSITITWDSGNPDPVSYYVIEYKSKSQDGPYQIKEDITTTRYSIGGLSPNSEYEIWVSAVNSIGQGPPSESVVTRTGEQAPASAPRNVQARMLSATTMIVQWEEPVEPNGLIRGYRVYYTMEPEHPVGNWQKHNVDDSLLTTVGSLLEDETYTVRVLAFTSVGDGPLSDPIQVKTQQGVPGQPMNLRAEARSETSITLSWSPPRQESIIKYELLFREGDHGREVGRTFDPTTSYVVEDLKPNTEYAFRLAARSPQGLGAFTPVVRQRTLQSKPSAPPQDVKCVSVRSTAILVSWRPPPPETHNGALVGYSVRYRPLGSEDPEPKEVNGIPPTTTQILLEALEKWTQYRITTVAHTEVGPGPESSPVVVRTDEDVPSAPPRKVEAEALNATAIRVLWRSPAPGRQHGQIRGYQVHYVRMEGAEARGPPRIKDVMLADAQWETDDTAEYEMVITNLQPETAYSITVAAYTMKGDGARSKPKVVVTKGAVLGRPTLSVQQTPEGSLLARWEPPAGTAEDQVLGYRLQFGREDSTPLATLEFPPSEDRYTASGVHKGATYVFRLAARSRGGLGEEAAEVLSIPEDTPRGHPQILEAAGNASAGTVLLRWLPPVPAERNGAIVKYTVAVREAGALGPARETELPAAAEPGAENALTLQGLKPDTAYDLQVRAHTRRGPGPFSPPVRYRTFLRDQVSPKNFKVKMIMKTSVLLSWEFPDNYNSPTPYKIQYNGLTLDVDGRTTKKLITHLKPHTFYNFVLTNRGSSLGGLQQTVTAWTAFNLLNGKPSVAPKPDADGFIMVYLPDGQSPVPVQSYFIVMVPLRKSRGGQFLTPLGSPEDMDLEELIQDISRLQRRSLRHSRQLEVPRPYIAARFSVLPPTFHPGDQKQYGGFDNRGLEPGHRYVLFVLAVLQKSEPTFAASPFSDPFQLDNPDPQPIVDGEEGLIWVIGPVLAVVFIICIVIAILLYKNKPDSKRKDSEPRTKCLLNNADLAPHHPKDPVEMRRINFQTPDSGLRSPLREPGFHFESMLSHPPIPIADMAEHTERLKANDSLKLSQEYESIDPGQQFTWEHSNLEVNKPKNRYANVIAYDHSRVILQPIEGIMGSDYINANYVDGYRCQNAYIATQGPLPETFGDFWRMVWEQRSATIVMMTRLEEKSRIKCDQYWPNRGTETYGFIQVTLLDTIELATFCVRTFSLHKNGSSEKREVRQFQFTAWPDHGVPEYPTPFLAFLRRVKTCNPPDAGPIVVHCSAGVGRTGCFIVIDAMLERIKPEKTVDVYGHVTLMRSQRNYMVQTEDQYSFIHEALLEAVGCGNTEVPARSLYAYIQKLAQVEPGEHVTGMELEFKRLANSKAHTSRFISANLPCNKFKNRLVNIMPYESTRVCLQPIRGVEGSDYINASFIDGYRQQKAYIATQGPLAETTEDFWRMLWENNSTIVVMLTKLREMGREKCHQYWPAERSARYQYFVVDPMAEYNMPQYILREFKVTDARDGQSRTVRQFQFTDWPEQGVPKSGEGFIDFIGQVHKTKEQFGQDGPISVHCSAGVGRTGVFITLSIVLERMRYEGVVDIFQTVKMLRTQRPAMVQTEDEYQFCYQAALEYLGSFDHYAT
UniProt Q15008: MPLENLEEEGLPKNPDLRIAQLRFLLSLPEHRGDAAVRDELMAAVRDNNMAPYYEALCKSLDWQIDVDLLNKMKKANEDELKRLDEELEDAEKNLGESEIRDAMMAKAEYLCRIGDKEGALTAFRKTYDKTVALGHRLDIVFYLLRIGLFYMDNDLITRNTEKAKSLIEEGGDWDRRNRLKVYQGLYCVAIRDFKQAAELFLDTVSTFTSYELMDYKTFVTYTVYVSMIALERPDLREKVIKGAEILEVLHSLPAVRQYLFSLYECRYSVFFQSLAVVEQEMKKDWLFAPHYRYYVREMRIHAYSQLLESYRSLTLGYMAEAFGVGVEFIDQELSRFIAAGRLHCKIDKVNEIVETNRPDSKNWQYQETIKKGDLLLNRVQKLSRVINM
UniProt Q9P2W1: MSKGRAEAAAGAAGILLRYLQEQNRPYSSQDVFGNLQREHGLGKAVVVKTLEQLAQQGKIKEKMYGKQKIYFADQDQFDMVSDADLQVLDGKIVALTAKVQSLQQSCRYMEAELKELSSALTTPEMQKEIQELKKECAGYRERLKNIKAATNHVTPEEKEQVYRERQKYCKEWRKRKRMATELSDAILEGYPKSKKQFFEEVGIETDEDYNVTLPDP
UniProt P28074: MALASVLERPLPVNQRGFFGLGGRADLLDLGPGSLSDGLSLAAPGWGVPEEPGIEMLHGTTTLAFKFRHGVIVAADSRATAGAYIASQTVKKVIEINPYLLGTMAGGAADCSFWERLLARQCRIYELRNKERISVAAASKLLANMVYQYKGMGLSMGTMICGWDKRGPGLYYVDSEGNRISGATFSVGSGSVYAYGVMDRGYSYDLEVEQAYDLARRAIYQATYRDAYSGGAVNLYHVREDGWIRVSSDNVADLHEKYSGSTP
UniProt Q9UNM6: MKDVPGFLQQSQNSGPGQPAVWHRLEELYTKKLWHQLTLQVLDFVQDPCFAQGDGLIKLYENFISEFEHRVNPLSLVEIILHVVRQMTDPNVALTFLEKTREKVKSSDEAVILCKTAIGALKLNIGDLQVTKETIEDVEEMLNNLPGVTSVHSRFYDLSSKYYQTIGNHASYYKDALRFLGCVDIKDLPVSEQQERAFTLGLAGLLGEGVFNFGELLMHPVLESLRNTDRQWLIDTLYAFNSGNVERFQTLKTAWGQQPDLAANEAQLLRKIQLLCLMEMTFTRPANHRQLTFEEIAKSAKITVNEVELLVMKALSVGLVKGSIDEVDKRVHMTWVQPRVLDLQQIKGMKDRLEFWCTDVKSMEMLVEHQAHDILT
UniProt Q9Y3E5: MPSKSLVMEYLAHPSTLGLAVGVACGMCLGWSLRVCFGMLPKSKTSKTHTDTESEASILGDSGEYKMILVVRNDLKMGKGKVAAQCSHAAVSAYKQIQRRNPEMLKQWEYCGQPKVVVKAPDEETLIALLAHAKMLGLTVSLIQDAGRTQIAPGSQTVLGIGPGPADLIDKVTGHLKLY

Assays:
Assay in all cases: log2 fold change, soluble protein after heating vs DMSO (PISA); higher = thermal stabilisation; K562 lysate, 10 uM; active = over 0.2 and 3.5 SD of the protein, either way, in both replicates (recomputed)
[1] = compound: C1=CC=C(C=C1)[C@H](COC2=CC3=C(C=C2)NC(=O)N3)NC(=O)C4=CC=CN(C4=O)CC5=CC(=C(C=C5)F)F
Method in brief: (§1)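 K562 pellets were dounce-homogenised in PBS pH 7.4 with 1 mM MgCl2, and the crude extract at 1 mg/mL protein was treated with 10 μM compound for 30 min. Aliquots were heated for 3 min across 48°C-58°C, pooled, and brought to 0.5% NP-40 at 4°C; soluble protein was the supernatant after 21,000xg for 90 min. Soluble protein was quantified by TMTpro 16plex LC-MS/MS with channel sums equalised, and reported as log2 fold change in thermal stability against DMSO controls, with values from duplicates.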

[2] = compound: CC1=C(SC2=C1C(=N[C@H](C3=NN=C(N32)C)CC(=O)N)C4=CC=C(C=C4)Cl)C
Method in brief: as §1

[3] = compound: CC1=C2C(=CC=C1)N=C(N(C2=O)C3=CC=CC=C3C)CN4C=NC5=C(N=CN=C54)N
Method in brief: as §1

[4] = compound: Cc1sc2c(c1C)C(c1ccc(Cl)cc1)=N[C@@H](CC(=O)OC(C)(C)C)c1nnc(C)n1-2
Method in brief: as §1

[5] = compound: c1ccc([C@@H]2C[C@H]2NC2CCNCC2)cc1
Method in brief: as §1

Measured: log2 fold change

PSMA7 (UniProt O14818)
inactive: [1] -0.021 | [2] 0.013 | [3] -0.012 | [4] 0.016 | [5] 0.041

PSMD4 (UniProt P55036)
inactive: [1] -0.003 | [2] -0.01 | [3] 0.022 | [4] -0.009 | [5] -0.03

PTTG1IP (UniProt P53801)
inactive: [1] -0.029 | [2] 0.007 | [3] -0.299 | [4] -0.183 | [5] -0.034

PSEN1 (UniProt P49768)
inactive: [1] 0.076 | [2] -0.043 | [3] 0.041 | [4] -0.026 | [5] 0.055

PRSS21 (UniProt Q9Y6M0)
inactive: [1] -0.026 | [2] -0.017 | [3] 0.049 | [4] 0.036 | [5] -0.061

Reprinted at random: 2 entries already listed, in no set order.
PRSS21 (UniProt Q9Y6M0)
inactive: [1] -0.026 | [2] -0.017 | [3] 0.049 | [4] 0.036 | [5] -0.061

PTTG1IP (UniProt P53801)
inactive: [1] -0.029 | [2] 0.007 | [3] -0.299 | [4] -0.183 | [5] -0.034

Next part:

PTAR1 (UniProt Q7Z6K3)
inactive: [1] 0.087 | [2] 0.056 | [3] 0.018 | [4] 0.057 | [5] -0.033

PSMC5 (UniProt P62195)
inactive: [1] -0.006 | [2] 0.016 | [3] 0.008 | [4] 0.003 | [5] 0.075

PWP1 (UniProt Q13610)
inactive: [1] 0.041 | [2] -0.041 | [3] -0.052 | [4] -0.004 | [5] 0.088

PSMC4 (UniProt P43686)
inactive: [1] -0.028 | [2] 0.039 | [3] 0.007 | [4] 0.008 | [5] 0.049

PTPRS isoform 3 (UniProt Q13332)
inactive: [1] 0.022 | [2] 0.027 | [3] 0.08 | [4] -0.069 | [5] 0.072

PSMD6 isoform 4 (UniProt Q15008)
inactive: [1] -0.007 | [2] 0.018 | [3] -0.003 | [4] -0.011 | [5] 0.026

PSMC3IP (UniProt Q9P2W1)
inactive: [1] -0.009 | [2] 0.052 | [3] 0.037 | [4] -0.013 | [5] 0.03

PSMB5 (UniProt P28074)
inactive: [1] 0.029 | [2] 0.022 | [3] -0.037 | [4] 0.02 | [5] -0.015

PSMD13 (UniProt Q9UNM6)
inactive: [1] -0.118 | [2] -0.046 | [3] -0.015 | [4] 0.031 | [5] 0.018

PRPS1 (UniProt B1ALA9)
inactive: [1] 0.027 | [2] 0.016 | [3] -0.011 | [4] 0.007 | [5] -0.027

PSMD4 (UniProt Q5VWC4)
inactive: [1] 0.005 | [2] 0.013 | [3] 0.011 | [5] -0.122

PTRH2 (UniProt Q9Y3E5)
inactive: [1] -0.026 | [2] -0.018 | [3] -0.051 | [4] 0.002 | [5] 0.014
